# Source: PubChem BioAssay AID1259405 (NCATS, 2018)
# Screen: 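Knock-downs that lift recombinant protein yield in hamster ovary cells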 (primary screen)
# Cell system: Chinese hamster CHO-K1 ovary cells with stable secreted eGFP expression
# Knock-down reagent: single siRNA against mouse genes, 0.8 pmol siRNA per well (2 µl of 400 nM stock)
# Duration: 3 days
# Read-out: 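Per-well intracellular GFP measured by laser scanning cytometry, plus viability from ATP luminescence, each relative to plate median of non-targeting control wells, in %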
# Reading the numbers: GFP, % of control: higher = more GFP per well, higher productivity; viability (ATP), % of control: higher = more viable cells (more ATP)
# Hit rule: 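Called active when intracellular GFP, relative to negative control, is at or above 120%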
# This is a random part of about 50,000 reagents. Over the whole deposit, about 4,000 (8%) got an active call. 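Mouse siRNA library applied to hamster cells; one well for each siRNA.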 Reagents against one gene are numbered here.
Gene,siRNA no.,"GFP, % of control","viability (ATP), % of control",Outcome
Sin3a,1,86.3,74.6,inactive
Sin3a,2,70.5,83.3,inactive
Mylk,1,73.8,71.4,inactive
Mylk,2,61.2,59.1,inactive
Mylk,3,63.5,61.1,inactive
Zfp422,1,78.6,48.7,inactive
Zfp422,2,92.1,76.2,inactive
Zfp422,3,73.7,105,inactive
Aifm3,1,67.2,31.9,inactive
Aifm3,2,59.9,40.2,inactive
Aifm3,3,90.5,65.9,inactive
Trim56,1,61.4,66.8,inactive
Trim56,2,95.2,106,inactive
Trim56,3,97.2,122,inactive
Ankrd40,1,106,48.5,inactive
Ankrd40,2,57.2,48.6,inactive
Ankrd40,3,75.3,95.6,inactive
Psmd11,1,37.6,11.7,inactive
Psmd11,2,36.4,20.2,inactive
Psmd11,3,58.9,67.1,inactive
Iffo2,1,98.2,92,inactive
Iffo2,2,73,64.1,inactive
Iffo2,3,95.3,73.2,inactive
Pcdhgc4,1,59,57.8,inactive
Pcdhgc4,2,14.3,26.9,inactive
Pcdhgc4,3,63.2,64.4,inactive
Pgbd5,1,94.5,65.8,inactive
Pgbd5,2,76.6,77.6,inactive
Pgbd5,3,60.8,70.8,inactive
Rpusd4,1,50.6,49.3,inactive
Rpusd4,2,94.5,105,inactive
Rpusd4,3,83.5,88.7,inactive
Cadm4,1,132,89.8,active
Cadm4,2,83.8,72.2,inactive
Cadm4,3,101,102,inactive
1810024B03Rik,1,91.8,59.3,inactive
1810024B03Rik,2,75.6,88.7,inactive
1810024B03Rik,3,83.1,89.1,inactive
Tchhl1,1,196,80.3,active
Tchhl1,2,93.6,78.1,inactive
Tchhl1,3,52.1,53.5,inactive
Or52e2,1,48.8,27.5,inactive
Or52e2,2,80.5,77.5,inactive
Or52e2,3,61.5,90,inactive
Ep300,1,46.1,33,inactive
Ep300,2,309,53.1,active
Ep300,3,22.3,36.9,inactive
Neurog3,1,81.2,63.6,inactive
Neurog3,2,102,69.8,inactive
Neurog3,3,99.4,129,inactive
Nsmce2,1,85.7,109,inactive
Nsmce2,2,92.5,60.7,inactive
Nsmce2,3,38.6,45.8,inactive
Cnn3,1,58.2,46.4,inactive
Cnn3,2,80,87.6,inactive
Cnn3,3,91.5,73.3,inactive
Agtr1a,1,156,78,active
Agtr1a,2,68.4,54,inactive
Agtr1a,3,70.1,102,inactive

A few values from the list.
Under “viability (ATP), % of control”, Nsmce2 #1 shows 109
Under “Outcome”, Neurog3 #1 has inactive
For “GFP, % of control”, Rpusd4 #1 has 50.6
For “Outcome”, Cnn3 #2 reads inactive
